Laboratory results: paper PMC12698188

Protein sequences, listed by entry. Tags and fused reporters are not part of them.
UniProt Q969H0: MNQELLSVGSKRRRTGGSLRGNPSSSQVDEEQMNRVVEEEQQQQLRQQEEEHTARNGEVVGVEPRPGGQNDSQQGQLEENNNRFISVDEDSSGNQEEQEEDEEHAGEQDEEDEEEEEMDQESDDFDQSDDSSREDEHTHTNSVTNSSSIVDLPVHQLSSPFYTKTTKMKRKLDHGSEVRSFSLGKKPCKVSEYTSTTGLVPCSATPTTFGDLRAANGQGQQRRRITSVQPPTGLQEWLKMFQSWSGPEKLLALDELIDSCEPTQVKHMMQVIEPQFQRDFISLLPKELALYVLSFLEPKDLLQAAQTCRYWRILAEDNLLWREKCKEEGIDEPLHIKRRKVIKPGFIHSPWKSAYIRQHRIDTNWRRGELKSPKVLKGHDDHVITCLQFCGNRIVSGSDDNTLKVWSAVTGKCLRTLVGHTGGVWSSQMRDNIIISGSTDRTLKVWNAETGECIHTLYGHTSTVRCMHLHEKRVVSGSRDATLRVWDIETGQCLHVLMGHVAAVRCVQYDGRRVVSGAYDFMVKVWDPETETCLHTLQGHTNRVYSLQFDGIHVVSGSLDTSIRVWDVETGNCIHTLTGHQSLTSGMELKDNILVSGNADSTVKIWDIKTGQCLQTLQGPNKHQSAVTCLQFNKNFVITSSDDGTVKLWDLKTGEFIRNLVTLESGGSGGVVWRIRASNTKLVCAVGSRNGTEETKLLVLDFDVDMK

Target: T1, glutaminyl tRNA synthetase (QARS), Flag-tagged (human) (UniProt P47897)
T1 sequence: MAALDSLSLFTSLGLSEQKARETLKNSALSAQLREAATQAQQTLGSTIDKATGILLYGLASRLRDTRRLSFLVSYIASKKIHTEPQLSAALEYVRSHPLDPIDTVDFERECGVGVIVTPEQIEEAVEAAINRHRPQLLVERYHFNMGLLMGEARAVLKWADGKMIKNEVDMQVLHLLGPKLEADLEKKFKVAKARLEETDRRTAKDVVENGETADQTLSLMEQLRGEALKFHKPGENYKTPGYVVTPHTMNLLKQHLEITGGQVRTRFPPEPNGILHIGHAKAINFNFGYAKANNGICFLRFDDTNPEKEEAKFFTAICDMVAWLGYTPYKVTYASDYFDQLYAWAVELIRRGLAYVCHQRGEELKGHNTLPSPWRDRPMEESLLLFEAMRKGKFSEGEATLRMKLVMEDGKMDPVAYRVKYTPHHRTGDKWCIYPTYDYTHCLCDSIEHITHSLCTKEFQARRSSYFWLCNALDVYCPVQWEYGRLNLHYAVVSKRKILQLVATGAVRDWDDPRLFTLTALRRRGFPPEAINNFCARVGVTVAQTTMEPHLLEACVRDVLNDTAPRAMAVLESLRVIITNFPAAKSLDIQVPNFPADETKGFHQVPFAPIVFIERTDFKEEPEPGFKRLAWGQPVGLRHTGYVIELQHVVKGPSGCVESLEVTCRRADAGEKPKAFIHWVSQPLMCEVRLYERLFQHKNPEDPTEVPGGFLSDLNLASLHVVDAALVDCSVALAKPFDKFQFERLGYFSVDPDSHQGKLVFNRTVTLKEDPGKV
Experiment: affinity purification with mass spectrometry; TAP-MS: HCT116+/+ cells transfected with pcDNA3.1-Flag or pcDNA3.1-QARS-Flag, immunoprecipitation after 36 h, trypsin digestion, UPLC-QE MS/MS

- binding: binds
Substance: F-box and WD repeat domain-containing 7 (FBW7), in HCT116+/+ cells (from UniProt Q969H0 1-707)

Results are given in words; binding and its absence hold for the method and conditions named. In cells and extracts the contact can be indirect. Here binding means that the protein was enriched with, or labelled near, the bait; the list need not be complete. Tags and fused reporters may be left off the sequences shown.
